Measurements taken from patent US8871735B2, “Methods and compositions for providing cardiac protection” (University of Medicine and Dentistry of New Jersey, priority 2008, dated 2014).
Structures were worked out from names or drawings and are uncertain.

Test system: H9C2 cells
Experiment: cAMP accumulation in H9C2 cells
Assay type: cell-based
Conditions: 5 μM ISO, 3 minutes, 10 μM drug
Procedure: […] Cells were stimulated with 5 μM isoproterenol (ISO), a β-AR agonist, for 3 minutes in the presence or absence of the indicated drugs (10 μM). Ara-Ade (Adenine 9-β-D-arabinofuranoside) is an anti-herpes simplex drug. Fludarabine ((+)-2-Fluoro-9-(5-O-phosphono-β-D-arabinofuranosyl)-9H-purin-6-amine) and Cladribine (2-chloro-2′-deoxyadenosine) are anti-cancer drugs, Adefovir (Bis(2,2-dimethylpropanoyloxymethyl)[2-(6-amino-9H-purin-9-yl)ethoxymethyl]phosphonate) and Zidovudine are anti-HIV drugs. Zidovudine-TP is a metabolite of zidovudine which inhibits virus replication. TP; triphosphate. 3-Deazaadenosine, Formycin A (7-Amino-3-(β-D-ribofuranosyl)-1H-pyrazolo[4,3-d]pyrimidine), 2-Far (2-Fluoroadenosine), formycin A ((2S,3R,4S,5R)-2-(7-amino-2H-pyrazolo[5,4-e]pyramidin-3-yl-5-(hydroxymeth-yl)oxolane-3,4-diol), 2-FD (2-Fluoro-2′-deoxyadenosine) and 2′5′ ddAdo (2′5′-dideoxyadenosine) are experimental drugs.
Mice were anesthetized with 2.5% tribromoethanol (0.010 to 0.015 mL per gram of body weight) injected intraperitoneally, and echocardiography was performed with ultrasonography (ACUSON Sequoia C256, Siemens Medical Solutions, Malvern, Pa.). […]

Nc1ncnc2c1ncn2C1CCC(C(=O)NO)C1 (stereo not shown) [PMC-6]
inhibition of cAMP accumulation in H9C2 cells: inhibited cAMP accumulation
